# Experimental data published in the supplement of paper PMC8728848.
# The list shows a part of the results.
# Tests used:
# Assay in all cases: glycan array binding signal (z-score within array); higher = stronger binding
# Settings in all cases: glycan notation: IUPAC condensed, linker removed
# [1] = test system: Man(b1-4)GlcNAc
# Summary of the method: (§1)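 Arrays were curated from the Consortium for Functional Glycomics database, 3228 in total, and kept only where the protein sequence was available. Binding is expressed as a within-array Z-score. This score was averaged across arrays of the same protein sequence at different concentrations or buffers and across linkers, and negative values can be read as non-binding.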
# [2] = test system: Neu5Ac(a2-3)Gal(b1-3)GalNAc(b1-3)Gal(a1-4)Gal(b1-4)Glc
# Summary of the method: as §1
# [3] = test system: Neu5Ac(a2-3)Gal(b1-3)GalNAc(b1-4)[Neu5Ac(a2-3)]Gal(b1-4)Glc
# Summary of the method: as §1
# [4] = test system: Neu5Ac(a2-3)Gal(b1-3)GalNAc(b1-4)[Neu5Ac(a2-8)Neu5Ac(a2-3)]Gal(b1-4)Glc
# Summary of the method: as §1
# [5] = test system: Neu5Ac(a2-3)Gal(b1-3)GalNAc6S
# Summary of the method: as §1
# [6] = test system: Neu5Ac(a2-3)Gal(b1-3)GalNAc
# Summary of the method: as §1
# [7] = test system: Neu5Ac(a2-3)Gal(b1-3)GlcNAc(b1-2)Man(a1-3)[GlcNAc(b1-4)][Neu5Ac(a2-3)Gal(b1-3)GlcNAc(b1-2)Man(a1-6)]Man(b1-4)GlcNAc(b1-4)GlcNAc
# Summary of the method: as §1
# [8] = test system: Neu5Ac(a2-3)Gal(b1-3)GlcNAc(b1-3)Gal(b1-3)GlcNAc
# Summary of the method: as §1
# [9] = test system: Neu5Ac(a2-3)Gal(b1-3)GlcNAc(b1-3)Gal(b1-4)GlcNAc
# Summary of the method: as §1
# [10] = test system: Neu5Ac(a2-3)Gal(b1-3)GlcNAc(b1-3)GalNAc
# Summary of the method: as §1
# [11] = test system: Neu5Ac(a2-3)Gal(b1-3)GlcNAc(b1-6)GalNAc
# Summary of the method: as §1
# [12] = test system: Neu5Ac(a2-3)Gal(b1-3)GlcNAc6S
# Summary of the method: as §1
# [13] = test system: Neu5Ac(a2-3)Gal(b1-3)GlcNAc
# Summary of the method: as §1
# [14] = test system: Neu5Ac(a2-3)Gal(b1-3)[Fuc(a1-4)]GlcNAc(b1-3)Gal(b1-3)[Fuc(a1-4)]GlcNAc
# Summary of the method: as §1
# [15] = test system: Neu5Ac(a2-3)Gal(b1-3)[Fuc(a1-4)]GlcNAc(b1-3)Gal(b1-4)[Fuc(a1-3)]GlcNAc
# Summary of the method: as §1
# [16] = test system: Neu5Ac(a2-3)Gal(b1-3)[Fuc(a1-4)]GlcNAc
# Summary of the method: as §1
# [17] = test system: Neu5Ac(a2-3)Gal(b1-3)[Neu5Ac(a2-3)Gal(b1-4)]GlcNAc
# Summary of the method: as §1
# [18] = test system: Neu5Ac(a2-3)Gal(b1-3)[Neu5Ac(a2-6)]GalNAc
# Summary of the method: as §1
# [19] = test system: Neu5Ac(a2-3)Gal(b1-3)[Neu5Ac(a2-6)]GlcNAc(b1-3)[Fuc(a1-3)[Gal(b1-4)]GlcNAc(b1-6)]Gal(b1-4)Glc
# Summary of the method: as §1
# [20] = test system: Neu5Ac(a2-3)Gal(b1-4)GlcNAc(b1-2)Man(a1-3)[GlcNAc(b1-2)Man(b1-4)GlcNAc(b1-2)Man(a1-6)]Man(b1-4)GlcNAc(b1-4)GlcNAc
# Summary of the method: as §1
# [21] = test system: Neu5Ac(a2-3)Gal(b1-4)GlcNAc(b1-2)Man(a1-3)[Neu5Ac(a2-3)Gal(b1-4)GlcNAc(b1-2)Man(a1-6)]Man(b1-4)GlcNAc(b1-4)[Fuc(a1-6)]GlcNAc
# Summary of the method: as §1
# [22] = test system: Neu5Ac(a2-3)Gal(b1-4)GlcNAc(b1-2)Man(a1-3)[Neu5Ac(a2-6)Gal(b1-4)GlcNAc(b1-2)Man(a1-6)]Man(b1-4)GlcNAc(b1-4)GlcNAc
# Summary of the method: as §1
# [23] = test system: Neu5Ac(a2-3)Gal(b1-4)GlcNAc(b1-2)Man
# Summary of the method: as §1
# [24] = test system: Neu5Ac(a2-3)Gal(b1-4)GlcNAc(b1-2)[Neu5Ac(a2-3)Gal(b1-4)GlcNAc(b1-6)]Man(a1-6)[Neu5Ac(a2-3)Gal(b1-4)GlcNAc(b1-2)Man(a1-3)]Man(b1-4)GlcNAc(b1-4)GlcNAc
# Summary of the method: as §1
# [25] = test system: Neu5Ac(a2-3)Gal(b1-4)GlcNAc(b1-3)Gal(b1-3)GlcNAc
# Summary of the method: as §1
# [26] = test system: Neu5Ac(a2-3)Gal(b1-4)GlcNAc(b1-3)Gal(b1-4)GlcNAc(b1-3)Gal(b1-4)GlcNAc
# Summary of the method: as §1
# [27] = test system: Neu5Ac(a2-3)Gal(b1-4)GlcNAc(b1-3)Gal(b1-4)GlcNAc
# Summary of the method: as §1
# [28] = test system: Neu5Ac(a2-3)Gal(b1-4)GlcNAc(b1-3)Gal(b1-4)[Fuc(a1-3)]GlcNAc
# Summary of the method: as §1
# [29] = test system: Neu5Ac(a2-3)Gal(b1-4)GlcNAc(b1-3)GalNAc
# Summary of the method: as §1
# [30] = test system: Neu5Ac(a2-3)Gal(b1-4)GlcNAc(b1-3)Gal
# Summary of the method: as §1
# [31] = test system: Neu5Ac(a2-3)Gal(b1-4)GlcNAc(b1-3)[Neu5Ac(a2-3)Gal(b1-4)GlcNAc(b1-6)]GalNAc
# Summary of the method: as §1
# [32] = test system: Neu5Ac(a2-3)Gal(b1-4)GlcNAc(b1-6)GalNAc
# Summary of the method: as §1
# [33] = test system: Neu5Ac(a2-3)Gal(b1-4)GlcNAc(b1-6)[Gal(b1-3)]GalNAc
# Summary of the method: as §1
# [34] = test system: Neu5Ac(a2-3)Gal(b1-4)GlcNAc(b1-6)[Neu5Ac(a2-3)Gal(b1-3)]GalNAc
# Summary of the method: as §1
# [35] = test system: Neu5Ac(a2-3)Gal(b1-4)GlcNAc6S
# Summary of the method: as §1
# [36] = test system: Neu5Ac(a2-3)Gal(b1-4)GlcNAc
# Summary of the method: as §1
# [37] = test system: Neu5Ac(a2-3)Gal(b1-4)Glc
# Summary of the method: as §1
# [38] = test system: Neu5Ac(a2-3)Gal(b1-4)[Fuc(a1-3)]GlcNAc(b1-3)Gal(b1-4)GlcNAc
# Summary of the method: as §1
# [39] = test system: Neu5Ac(a2-3)Gal(b1-4)[Fuc(a1-3)]GlcNAc(b1-3)Gal(b1-4)[Fuc(a1-3)]GlcNAc(b1-3)Gal(b1-4)[Fuc(a1-3)]GlcNAc
# Summary of the method: as §1
# [40] = test system: Neu5Ac(a2-3)Gal(b1-4)[Fuc(a1-3)]GlcNAc(b1-3)GalNAc
# Summary of the method: as §1
# [41] = test system: Neu5Ac(a2-3)Gal(b1-4)[Fuc(a1-3)]GlcNAc(b1-3)Gal
# Summary of the method: as §1
# [42] = test system: Neu5Ac(a2-3)Gal(b1-4)[Fuc(a1-3)]GlcNAc(b1-6)[Gal(b1-3)]GalNAc
# Summary of the method: as §1
# [43] = test system: Neu5Ac(a2-3)Gal(b1-4)[Fuc(a1-3)]GlcNAc6S
# Summary of the method: as §1
# [44] = test system: Neu5Ac(a2-3)Gal(b1-4)[Fuc(a1-3)]GlcNAc
# Summary of the method: as §1
# [45] = test system: Neu5Ac(a2-3)Gal6S(b1-4)GlcNAc
# Summary of the method: as §1
# [46] = test system: Neu5Ac(a2-3)Gal6S(b1-4)[Fuc(a1-3)]GlcNAc
# Summary of the method: as §1
# [47] = test system: Neu5Ac(a2-3)GalNAc(b1-4)GlcNAc
# Summary of the method: as §1
# [48] = test system: Neu5Ac(a2-3)GalNAc
# Summary of the method: as §1
# [49] = test system: Neu5Ac(a2-3)Gal
# Summary of the method: as §1
# [50] = test system: Neu5Ac(a2-3)[GalNAc(b1-4)]Gal(b1-4)GlcNAc(b1-3)GalNAc
# Summary of the method: as §1
# [51] = test system: Neu5Ac(a2-3)[GalNAc(b1-4)]Gal(b1-4)GlcNAc
# Summary of the method: as §1
# [52] = test system: Neu5Ac(a2-3)[GalNAc(b1-4)]Gal(b1-4)Glc
# Summary of the method: as §1
substance,measurement,setting,value
"Wza (Escherichia coli), P0A930",glycan array binding signal (z-score),[1],-0.686
same,glycan array binding signal (z-score),[2],1.07
same,glycan array binding signal (z-score),[3],-0.692
same,glycan array binding signal (z-score),[4],0.61
same,glycan array binding signal (z-score),[5],-0.69
same,glycan array binding signal (z-score),[6],0.257
same,glycan array binding signal (z-score),[7],-1.23
same,glycan array binding signal (z-score),[8],0.621
same,glycan array binding signal (z-score),[9],-0.033
same,glycan array binding signal (z-score),[10],-0.192
same,glycan array binding signal (z-score),[11],1.38
same,glycan array binding signal (z-score),[12],-1.5
same,glycan array binding signal (z-score),[13],-0.762
same,glycan array binding signal (z-score),[14],-0.85
same,glycan array binding signal (z-score),[15],1.94
same,glycan array binding signal (z-score),[16],0.702
same,glycan array binding signal (z-score),[17],0.434
same,glycan array binding signal (z-score),[18],-0.38
same,glycan array binding signal (z-score),[19],0.175
same,glycan array binding signal (z-score),[20],-0.441
same,glycan array binding signal (z-score),[21],0.091
same,glycan array binding signal (z-score),[22],-1.27
same,glycan array binding signal (z-score),[23],0.842
same,glycan array binding signal (z-score),[24],-0.47
same,glycan array binding signal (z-score),[25],-0.926
same,glycan array binding signal (z-score),[26],-0.493
same,glycan array binding signal (z-score),[27],-1.45
same,glycan array binding signal (z-score),[28],0.953
same,glycan array binding signal (z-score),[29],2.43
same,glycan array binding signal (z-score),[30],2.81
same,glycan array binding signal (z-score),[31],2.11
same,glycan array binding signal (z-score),[32],-0.404
same,glycan array binding signal (z-score),[33],0.334
same,glycan array binding signal (z-score),[34],1.46
same,glycan array binding signal (z-score),[35],0.428
same,glycan array binding signal (z-score),[36],-1.27
same,glycan array binding signal (z-score),[37],-0.735
same,glycan array binding signal (z-score),[38],0.406
same,glycan array binding signal (z-score),[39],0.171
same,glycan array binding signal (z-score),[40],1.12
same,glycan array binding signal (z-score),[41],-0.736
same,glycan array binding signal (z-score),[42],1.6
same,glycan array binding signal (z-score),[43],-0.433
same,glycan array binding signal (z-score),[44],-0.446
same,glycan array binding signal (z-score),[45],-0.975
same,glycan array binding signal (z-score),[46],-0.127
same,glycan array binding signal (z-score),[47],-0.131
same,glycan array binding signal (z-score),[48],-0.035
same,glycan array binding signal (z-score),[49],-0.725
same,glycan array binding signal (z-score),[50],-0.181
same,glycan array binding signal (z-score),[51],0.075
same,glycan array binding signal (z-score),[52],-1.26

# Looked up one by one from the entries so far, 3 records:
substance,measurement,setting,value
"Wza (Escherichia coli), P0A930",glycan array binding signal (z-score),[36],-1.27
same,glycan array binding signal (z-score),[4],0.61
same,glycan array binding signal (z-score),[3],-0.692
